Taken from: PubChem BioAssay AID1259405 (NCATS, 2018)

Purpose: 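Silenced genes that increase secreted GFP made by CHO cells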 (primary screen)
Cell system: Chinese hamster CHO-K1 ovary cells with stable secreted eGFP expression
Reagent: single siRNA against mouse genes, 0.8 pmol siRNA per well (2 µl of 400 nM stock)
Timing: 3 days
Measured: 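Percent of the per-plate non-targeting control median for intracellular GFP per well by laser scanning cytometry and for cell viability by ATP luminescence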
Scale: GFP, % of control: higher = more GFP per well, higher productivity
Call rule: 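Called active when intracellular GFP, relative to negative control, is at or above 120%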
Shown is a random part of about 50,000 deposited reagents. About 4,000 of all reagents (8%) count as active. 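Mouse siRNA library applied to hamster cells; one well for each siRNA.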 A number with no mark means an inactive call. Reagents against one gene are numbered here. Further read-outs or replicates are left out here.

GFP, % of control, by target and reagent
Or5bw2 (olfactory receptor family 5 subfamily BW member 2): #1 85.7; #2 85.1; #3 118
Zbtb26 (zinc finger and BTB domain containing 26): #1 92.9; #2 87.9
Srpx2 (sushi-repeat-containing protein, X-linked 2): #1 57.7; #2 105
Slco1b2: #1 63.8; #2 67.6; #3 101
Zc3hav1 (zinc finger CCCH type, antiviral 1): #1 26.6; #2 90.5; #3 111
Apbb3 (amyloid beta precursor protein binding family B member 3): #1 88.4; #2 70.6; #3 84.3
Dlgap3 (DLG associated protein 3): #1 55.5; #2 51.3; #3 58.3
Clcn7 (chloride channel, voltage-sensitive 7): #1 56.1; #2 66.7; #3 100
Vmn1r46 (vomeronasal 1 receptor 46): #1 55.7; #2 156 (active); #3 73.2
Or2h1 (olfactory receptor family 2 subfamily H member 1): #1 86.7; #2 69.6; #3 92.6
Dkk2 (dickkopf WNT signaling pathway inhibitor 2): #1 82; #2 113; #3 79.3
Smap1 (small ArfGAP 1): #1 40.9; #2 92; #3 52.4
Bnip5 (BCL2 interacting protein 5): #1 106; #2 64.2; #3 81.6
Rsrp1 (arginine/serine rich protein 1): #1 72.2; #2 114; #3 127 (active)
Vmo1 (vitelline membrane outer layer 1 homolog (chicken)): #1 71; #2 118; #3 147 (active)
Or9a4 (olfactory receptor family 9 subfamily A member 4): #1 76.6; #2 60.2; #3 34.2
Plscr3 (phospholipid scramblase 3): #1 87.6; #2 136 (active); #3 73.3
Cox18 (cytochrome c oxidase assembly protein 18): #1 151 (active); #2 76.8; #3 63.3
Mecom (MDS1 and EVI1 complex locus): #1 104; #2 89.9; #3 53.4; #4 107; #5 106
Vmn2r26 (vomeronasal 2, receptor 26): #1 76.5; #2 53.4; #3 26.8
Tmco4 (transmembrane and coiled-coil domains 4): #1 73.8; #2 195 (active); #3 61.8
Tigd5 (tigger transposable element derived 5): #1 68.5; #2 80.6
Usp53 (ubiquitin specific peptidase 53): #1 87.9; #2 67.4; #3 16.2
Tpst2 (protein-tyrosine sulfotransferase 2): #1 35.3; #2 90.1; #3 18.1
Golim4 (golgi integral membrane protein 4): #1 72.1; #2 61.9; #3 90
Pramel1 (PRAME like 1): #1 85; #2 83.5; #3 149 (active); #4 149 (active); #5 76.3; #6 84.1
Vmn1r24 (vomeronasal 1 receptor 24): #1 110; #2 80.7; #3 99.8
Oas1a (2'-5' oligoadenylate synthetase 1A): #1 75.5; #2 88.2; #3 42.8

Records listed above with an active call:
GFP, % of control, by target and reagent
Vmn1r46 (vomeronasal 1 receptor 46): #2 156 (active)
Rsrp1 (arginine/serine rich protein 1): #3 127 (active)
Vmo1 (vitelline membrane outer layer 1 homolog (chicken)): #3 147 (active)
Plscr3 (phospholipid scramblase 3): #2 136 (active)
Cox18 (cytochrome c oxidase assembly protein 18): #1 151 (active)
Tmco4 (transmembrane and coiled-coil domains 4): #2 195 (active)
Pramel1 (PRAME like 1): #3 149 (active); #4 149 (active)
